Data taken from PubChem BioAssay AID248 (DTP/NCI, 2004).
The list is a part of this screen's results and no random one: it covers a few groups of compounds. Not every dose and run of a compound is shown. T/C: endpoint of the treated group in % of that of the vehicle group. Some entries give survivors of the animals treated and no T/C: the source holds a T/C of zero for them, seemingly a mark for toxic or unscored doses. Some survivor counts are full or nearly so, which does not show that the dose was tolerated: survival well below the control is almost never listed, so the zero probably covers shortened survival too. Counts of survivors are from the toxicity check (mostly the fifth day) where no day follows; animals may have died later. Schedules are NCI's codes, taken here to give the interval after Q, in days (D) or hours (H), and the number of doses after X. Some schedules carry Z or #; the key to these is not given. Where survival is the endpoint, the PubChem record calls one and a half times the control and up active, and a quarter to a half above the control has no call in these data; cut-offs in other NCI protocols can differ. Signs of the kind (2×) count equal records among those shown. Some entries were tested several times; the results are listed from low to high. Some T/C values carry the count of animals alive at the toxicity check (mostly the fifth day); where neither a count nor a note follows, no animal had died by that day. Some entries show no survivor count and are marked so; the dose need not have been tolerated.

System: L1210 leukemia ip in BDF1 mice, survival T/C
Experiment: NCI In Vivo Anticancer Drug Screen. Data for tumor model L1210 Leukemia (intraperitoneal) in B6D2F1 (BDF1) mice
Conditions: T/C endpoint: mean survival time, higher T/C = longer survival
[1] = dose: 100.0 mg/kg/injection, schedule: Q04DX002 (ip), vehicle: Klucel (hydroxypropylcellulose) (HPC)
[2] = dose: 200.0 mg/kg/injection, schedule: Q04DX002 (ip), vehicle: Klucel (hydroxypropylcellulose) (HPC)
[3] = dose: 400.0 mg/kg/injection, schedule: Q04DX002 (ip), vehicle: Klucel (hydroxypropylcellulose) (HPC)
[4] = dose: 80.0 mg/kg/injection, schedule: Q01DX001 (ip), vehicle: saline

**Q.** For CCOP1OC(C)C(C)O1 (stereo not drawn), which T/C (dose: 100.0 mg/kg/injection, schedule: Q01DX001 (ip), vehicle: saline) is on record?
**A.** 102 % of control

**Q.** And the T/C (dose: 200.0 mg/kg/injection, schedule: Q01DX001 (ip), vehicle: saline)?
**A.** 115 % of control

**Q.** What about the T/C (dose: 400.0 mg/kg/injection, schedule: Q01DX001 (ip), vehicle: saline) of the same compound?
**A.** 100 % of control [3 of 4 alive]

**Q.** How did the T/C (dose: 50.0 mg/kg/injection, schedule: Q01DX009 (ip), vehicle: Klucel (hydroxypropylcellulose) (HPC)) turn out when O=C(c1cc2ccccc2oc1=O)N(CCCl)CCCl was run?
**A.** 111 % of control

**Q.** What about the T/C (dose: 100.0 mg/kg/injection, schedule: Q01DX009 (ip), vehicle: Klucel (hydroxypropylcellulose) (HPC)) of the same compound?
**A.** 96 % of control

**Q.** And the T/C (dose: 200.0 mg/kg/injection, schedule: Q01DX009 (ip), vehicle: Klucel (hydroxypropylcellulose) (HPC))?
**A.** 93 % of control [2 of 3 alive]

**Q.** O=[N+]([O-])c1ccc(N2CCN(c3ccc([N+](=O)[O-])cc3[N+](=O)[O-])CC2)c([N+](=O)[O-])c1 was tested. Which T/C [1] did it give?
**A.** 104 % of control

**Q.** What about the T/C [2] of the same compound?
**A.** 95 % of control [2 of 3 alive]

**Q.** What about the T/C [3] of the same compound?
**A.** 86 % of control

**Q.** For CCOc1ccc2ccccc2c1OCC.O=C1c2cc([N+](=O)[O-])ccc2-c2c1cc([N+](=O)[O-])cc2[N+](=O)[O-], which T/C (dose: 6.25 mg/kg/injection, schedule: Q04DX002 (ip), vehicle: saline with Tween-80) is on record?
**A.** 98 % of control

**Q.** What about the T/C (dose: 12.5 mg/kg/injection, schedule: Q04DX002 (ip), vehicle: saline with Tween-80) of the same compound?
**A.** 91 % of control

**Q.** And the survivor count (dose: 25.0 mg/kg/injection, schedule: Q04DX002 (ip), vehicle: saline with Tween-80)?
**A.** 3 of 3

**Q.** What does the source list for O=[N+]([O-])c1ccc(Nc2ccc([N+](=O)[O-])cc2[N+](=O)[O-])c([N+](=O)[O-])c1?
**A.** T/C (dose: 100.0 mg/kg/injection, schedule: Q04DX003 (ip), vehicle: Klucel (hydroxypropylcellulose) (HPC)): 95 % of control [survivor count not shown]; T/C (dose: 200.0 mg/kg/injection, schedule: Q04DX003 (ip), vehicle: Klucel (hydroxypropylcellulose) (HPC)): 97 % of control [survivor count not shown]; T/C (dose: 400.0 mg/kg/injection, schedule: Q04DX003 (ip), vehicle: Klucel (hydroxypropylcellulose) (HPC)): 89 % of control [survivor count not shown]

**Q.** For O=C(O)CCc1cccc(N(CCCl)CCCl)c1, which T/C (dose: 2.0 mg/kg/injection, schedule: Q01DX Z (ip), vehicle: saline) is on record?
**A.** 101 % of control

**Q.** What about the T/C (dose: 3.0 mg/kg/injection, schedule: Q01DX Z (ip), vehicle: methylcellulose (MC)) of the same compound?
**A.** 106 % of control

**Q.** What about the T/C (dose: 4.0 mg/kg/injection, schedule: Q01DX Z (ip), vehicle: saline) of the same compound?
**A.** 97 % of control

**Q.** What about the T/C (dose: 6.0 mg/kg/injection, schedule: Q01DX Z (ip), vehicle: methylcellulose (MC)) of the same compound?
**A.** 91 % of control

**Q.** What about the T/C (dose: 8.0 mg/kg/injection, schedule: Q01DX Z (ip), vehicle: methylcellulose (MC)) of the same compound?
**A.** 109 % of control

**Q.** And the T/C (dose: 8.0 mg/kg/injection, schedule: Q01DX Z (ip), vehicle: saline)?
**A.** 101 % of control

**Q.** What about the T/C (dose: 11.0 mg/kg/injection, schedule: Q01DX Z (ip), vehicle: carboxymethylcellulose (CMC)) of the same compound?
**A.** 105 % of control

**Q.** What about the T/C (dose: 12.0 mg/kg/injection, schedule: Q01DX Z (ip), vehicle: methylcellulose (MC)) of the same compound?
**A.** 87 [5 of 6 alive] and 112 % of control

**Q.** What about the T/C (dose: 17.0 mg/kg/injection, schedule: Q01DX Z (ip), vehicle: carboxymethylcellulose (CMC)) of the same compound?
**A.** 114 % of control

**Q.** And the T/C (dose: 18.0 mg/kg/injection, schedule: Q01DX Z (ip), vehicle: methylcellulose (MC))?
**A.** 115 % of control

**Q.** And the T/C (dose: 24.0 mg/kg/injection, schedule: Q01DX Z (ip), vehicle: methylcellulose (MC))?
**A.** 126 % of control [5 of 6 alive]

**Q.** And the T/C (dose: 24.0 mg/kg/injection, schedule: Q01DX Z (ip), vehicle: saline)?
**A.** 112 and 125 % of control

**Q.** And the T/C (dose: 25.0 mg/kg/injection, schedule: Q04DX002 (ip), vehicle: Klucel (hydroxypropylcellulose) (HPC))?
**A.** 111 % of control

**Q.** What about the T/C (dose: 26.0 mg/kg/injection, schedule: Q01DX Z (ip), vehicle: carboxymethylcellulose (CMC)) of the same compound?
**A.** 114 % of control

**Q.** And the T/C (dose: 27.0 mg/kg/injection, schedule: Q01DX Z (ip), vehicle: methylcellulose (MC))?
**A.** 113 % of control [5 of 6 alive]

**Q.** And the T/C (dose: 36.0 mg/kg/injection, schedule: Q01DX Z (ip), vehicle: saline)?
**A.** 118 and 134 % of control

**Q.** What about the T/C (dose: 40.0 mg/kg/injection, schedule: Q01DX Z (ip), vehicle: carboxymethylcellulose (CMC)) of the same compound?
**A.** 117 and 132 % of control

**Q.** What about the survivor count (dose: 48.0 mg/kg/injection, schedule: Q01DX Z (ip), vehicle: methylcellulose (MC)) of the same compound?
**A.** 2 of 6

**Q.** What about the T/C (dose: 50.0 mg/kg/injection, schedule: Q04DX002 (ip), vehicle: Klucel (hydroxypropylcellulose) (HPC)) of the same compound?
**A.** 108 % of control

**Q.** What about the T/C (dose: 54.0 mg/kg/injection, schedule: Q01DX Z (ip), vehicle: saline) of the same compound?
**A.** 150 % of control

**Q.** And the survivor count (dose: 60.0 mg/kg/injection, schedule: Q01DX Z (ip), vehicle: carboxymethylcellulose (CMC))?
**A.** 3 of 6

**Q.** What about the survivor count (dose: 72.0 mg/kg/injection, schedule: Q01DX Z (ip), vehicle: saline) of the same compound?
**A.** 0 of 6

**Q.** And the survivor count (dose: 90.0 mg/kg/injection, schedule: Q01DX Z (ip), vehicle: carboxymethylcellulose (CMC))?
**A.** 0 of 6

**Q.** And the T/C (dose: 100.0 mg/kg/injection, schedule: Q01DX001 (ip), vehicle: carboxymethylcellulose (CMC))?
**A.** 117 % of control

**Q.** And the T/C [1]?
**A.** 99 % of control [2 of 3 alive]

**Q.** And the survivor count [1]?
**A.** 0 of 3

**Q.** What about the survivor count (dose: 200.0 mg/kg/injection, schedule: Q01DX001 (ip), vehicle: carboxymethylcellulose (CMC)) of the same compound?
**A.** 0 of 4

**Q.** And the survivor count [2]?
**A.** 0 of 3

**Q.** And the survivor count (dose: 400.0 mg/kg/injection, schedule: Q01DX001 (ip), vehicle: carboxymethylcellulose (CMC))?
**A.** 0 of 4

**Q.** And the survivor count [3]?
**A.** 0 of 3

**Q.** Which T/C (dose: 12.5 mg/kg/injection, schedule: Q01DX009 (ip), vehicle: saline with Tween-80) does the source give for CCOP1(N)=NP(Cl)(Cl)=NP(Cl)(Cl)=N1 (stereo not drawn) here?
**A.** 100 % of control

**Q.** And the T/C (dose: 25.0 mg/kg/injection, schedule: Q01DX009 (ip), vehicle: saline with Tween-80)?
**A.** 105 % of control

**Q.** And the T/C (dose: 50.0 mg/kg/injection, schedule: Q01DX009 (ip), vehicle: saline with Tween-80)?
**A.** 98 and 100 % of control

**Q.** And the survivor count (dose: 100.0 mg/kg/injection, schedule: Q01DX009 (ip), vehicle: saline with Tween-80)?
**A.** 3 of 6

**Q.** And the survivor count (dose: 200.0 mg/kg/injection, schedule: Q01DX009 (ip), vehicle: saline with Tween-80)?
**A.** 0 of 6

**Q.** How did the T/C (dose: 50.0 mg/kg/injection, schedule: Q04DX003 (ip), vehicle: saline with Tween-80) turn out when Cn1ccc2ccccc21.O=[N+]([O-])c1cc([N+](=O)[O-])cc([N+](=O)[O-])c1 was run?
**A.** 100 % of control [survivor count not shown]

**Q.** And the T/C (dose: 100.0 mg/kg/injection, schedule: Q04DX003 (ip), vehicle: saline with Tween-80)?
**A.** 100 % of control [survivor count not shown]

**Q.** And the T/C (dose: 200.0 mg/kg/injection, schedule: Q04DX003 (ip), vehicle: saline with Tween-80)?
**A.** 96 % of control [survivor count not shown]

**Q.** For COc1cc2c(c3oc(=O)c4c(c13)CCC4=O)[C@@H]1C=CO[C@@H]1O2, which T/C (dose: 5.0 mg/kg/injection, schedule: Q01DX001 (ip), vehicle: saline) is on record?
**A.** 103 and 104 % of control

**Q.** What about the T/C (dose: 10.0 mg/kg/injection, schedule: Q01DX001 (ip), vehicle: saline) of the same compound?
**A.** 104 and 109 % of control

**Q.** What about the T/C (dose: 20.0 mg/kg/injection, schedule: Q01DX001 (ip), vehicle: saline) of the same compound?
**A.** 113 % of control (2×)

**Q.** What about the T/C (dose: 40.0 mg/kg/injection, schedule: Q01DX001 (ip), vehicle: saline) of the same compound?
**A.** 113 and 119 % of control

**Q.** What about the T/C [4] of the same compound?
**A.** 122 % of control

**Q.** What about the survivor count [4] of the same compound?
**A.** 2 of 4

**Q.** And the T/C (dose: 15.6 micrograms/kg/injection, schedule: Q01DX001 (ip), vehicle: saline)?
**A.** 100 % of control

**Q.** And the T/C (dose: 31.3 micrograms/kg/injection, schedule: Q01DX001 (ip), vehicle: saline)?
**A.** 97 % of control

**Q.** And the T/C (dose: 62.5 micrograms/kg/injection, schedule: Q01DX001 (ip), vehicle: saline)?
**A.** 97 % of control

**Q.** And the T/C (dose: 125.0 micrograms/kg/injection, schedule: Q01DX001 (ip), vehicle: saline)?
**A.** 97 % of control

**Q.** What about the T/C (dose: 250.0 micrograms/kg/injection, schedule: Q01DX001 (ip), vehicle: saline) of the same compound?
**A.** 100 % of control

**Q.** What about the T/C (dose: 500.0 micrograms/kg/injection, schedule: Q01DX001 (ip), vehicle: saline) of the same compound?
**A.** 97 % of control

**Q.** And the T/C (dose: 1000.0 micrograms/kg/injection, schedule: Q01DX001 (ip), vehicle: saline)?
**A.** 92 % of control

**Q.** What about the T/C (dose: 2000.0 micrograms/kg/injection, schedule: Q01DX001 (ip), vehicle: saline) of the same compound?
**A.** 100 % of control

**Q.** What about the T/C (dose: 4000.0 micrograms/kg/injection, schedule: Q01DX001 (ip), vehicle: saline) of the same compound?
**A.** 105 % of control
